In paper PMC6163694 one finds binding data, which are given here for four molecules.

Chains of the proteins cited; added tags and fusions are not shown.
UniProt P59242: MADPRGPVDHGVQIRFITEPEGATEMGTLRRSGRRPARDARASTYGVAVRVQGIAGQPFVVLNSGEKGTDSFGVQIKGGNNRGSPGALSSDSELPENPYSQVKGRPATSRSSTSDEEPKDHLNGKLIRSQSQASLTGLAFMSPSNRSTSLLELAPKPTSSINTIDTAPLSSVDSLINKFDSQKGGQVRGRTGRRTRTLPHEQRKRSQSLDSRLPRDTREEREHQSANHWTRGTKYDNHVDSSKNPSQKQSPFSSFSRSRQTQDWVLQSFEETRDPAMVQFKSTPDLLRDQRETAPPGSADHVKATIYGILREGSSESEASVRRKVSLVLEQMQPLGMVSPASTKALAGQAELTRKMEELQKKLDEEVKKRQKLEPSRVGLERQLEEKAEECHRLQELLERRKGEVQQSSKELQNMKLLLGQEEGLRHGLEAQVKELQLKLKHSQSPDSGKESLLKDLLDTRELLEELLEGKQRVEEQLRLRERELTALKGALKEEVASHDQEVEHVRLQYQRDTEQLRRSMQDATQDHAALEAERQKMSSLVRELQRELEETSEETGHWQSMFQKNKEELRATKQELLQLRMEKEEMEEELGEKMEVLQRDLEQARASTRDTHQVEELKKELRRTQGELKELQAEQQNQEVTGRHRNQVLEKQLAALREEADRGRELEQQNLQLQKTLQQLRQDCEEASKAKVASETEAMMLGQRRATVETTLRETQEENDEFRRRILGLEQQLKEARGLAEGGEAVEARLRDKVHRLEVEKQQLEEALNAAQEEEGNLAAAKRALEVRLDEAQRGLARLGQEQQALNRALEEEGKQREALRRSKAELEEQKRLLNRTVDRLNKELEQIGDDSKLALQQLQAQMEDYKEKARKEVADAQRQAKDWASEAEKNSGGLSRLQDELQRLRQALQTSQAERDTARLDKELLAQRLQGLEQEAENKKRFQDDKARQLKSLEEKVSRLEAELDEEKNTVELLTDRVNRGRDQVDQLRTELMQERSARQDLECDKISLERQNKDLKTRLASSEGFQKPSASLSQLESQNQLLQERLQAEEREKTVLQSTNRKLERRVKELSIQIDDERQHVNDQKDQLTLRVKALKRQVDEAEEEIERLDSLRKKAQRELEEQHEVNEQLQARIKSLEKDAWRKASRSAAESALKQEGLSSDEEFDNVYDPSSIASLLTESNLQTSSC
UniProt P70689: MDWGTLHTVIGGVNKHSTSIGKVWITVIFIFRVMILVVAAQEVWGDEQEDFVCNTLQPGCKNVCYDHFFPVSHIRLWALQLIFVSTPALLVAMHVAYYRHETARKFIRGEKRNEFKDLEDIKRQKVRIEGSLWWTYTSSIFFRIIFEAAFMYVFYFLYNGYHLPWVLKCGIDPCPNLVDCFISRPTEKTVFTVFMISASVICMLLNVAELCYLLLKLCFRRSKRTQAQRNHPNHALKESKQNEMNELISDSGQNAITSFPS
UniProt P23242: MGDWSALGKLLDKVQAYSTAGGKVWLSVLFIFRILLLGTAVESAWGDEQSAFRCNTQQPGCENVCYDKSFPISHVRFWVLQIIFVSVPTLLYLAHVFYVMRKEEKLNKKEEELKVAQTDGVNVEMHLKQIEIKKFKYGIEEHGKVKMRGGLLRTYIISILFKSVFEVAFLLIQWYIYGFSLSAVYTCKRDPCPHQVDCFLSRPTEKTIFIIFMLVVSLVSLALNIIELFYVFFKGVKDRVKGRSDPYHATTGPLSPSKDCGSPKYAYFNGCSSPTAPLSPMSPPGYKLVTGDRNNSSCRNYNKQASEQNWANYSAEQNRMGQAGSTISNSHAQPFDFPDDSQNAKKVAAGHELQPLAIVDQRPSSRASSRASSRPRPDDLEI

First the molecules themselves.
B1: connexin 31 (CX31), endogenous (protein, UniProt P28231 1-270)
chain: MDWKKLQDLLSGVNQYSTAFGRIWLSVVFVFRVLVYVVAAERVWGDEQKDFDCNTRQPGCTNVCYDNFFPISNIRLWALQLIFVTCPSMLVILHVAYREERERKHRQKHGEQCAKLYSHPGKKHGGLWWTYLFSLIFKLIIELVFLYVLHTLWHGFTMPRLVQCASIVPCPNTVDCYIARPTEKKVFTYFMVGASAVCIILTICEICYLIFHRIMRGISKGKSTKSISSPKSSSRASTCRCHHKLLESGDPEADPASEKLQASAPSLTPI
B2: argininosuccinate synthase 1 (ASS1) (protein, UniProt P16460 1-412)
chain: MSSKGSVVLAYSGGLDTSCILVWLKEQGYDVIAYLANIGQKEDFEEARKKALKLGAKKVFIEDVSKEFVEEFIWPAVQSSALYEDRYLLGTSLARPCIARRQVEIAQREGAKYVSHGATGKGNDQVRFELTCYSLAPQIKVIAPWRMPEFYNRFKGRNDLMEYAKQHGIPIPVTPKSPWSMDENLMHISYEAGILENPKNQAPPGLYTKTQDPAKAPNSPDVLEIEFKKGVPVKVTNIKDGTTRTTSLELFMYLNEVAGKHGVGRIDIVENRFIGMKSRGIYETPAGTILYHAHLDIEAFTMDREVRKIKQGLGLKFAELVYTGFWHSPECEFVRHCIQKSQERVEGKVQVSVFKGQVYILGRESPLSLYNEELVSMNVQGDYEPIDATGFININSLRLKEYHRLQSKVTAK

These are yes or no findings as the source states them, for the method shown. In cells and extracts the contact can be indirect. Some entries that bind do so weakly or less than the wild type.

This test addresses cingulin (CGN) (mouse (endogenous in mouse brain or liver)) (UniProt P59242). As to the kind of experiment: co-IP; anti-CGN antibody on precleared P2–P3 mouse liver lysate in RIPA buffer, 16 h at 4 °C, protein-A plus protein-G beads; Western blot; normal mouse serum as control. Background: In western blotting, separated proteins are transferred to a membrane and probed.
As for “connexin 30 (CX30), endogenous (from UniProt P70689 1-261)”, the binding result is listed as “binds”. With “connexin 43 (CX43), endogenous (from UniProt P23242 1-382)” the entry was “binds”; with B1, “binds”. With B2 the entry was “binds”.
